Values from PubChem BioAssay AID743454 (Peter MacCallum Cancer Centre, 2014)

Test: 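Genes whose loss kills vorinostat-resistant colon cancer cells under vorinostat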 (primary screen)
Cell system: human HCT116-VR colon cancer cells, selected for vorinostat resistance
Reagent: siRNA pool against human genes, 40 nM siRNA pool
Timing: vorinostat for 24 h, read-out about 72 h after transfection
Treatment: vorinostat at 2.5 µM final
Measurement: 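Two measures, CellTiter-Fluor viability and luminescent caspase 3/7 activity, each as fold change against same-plate mock wells, mean of duplicates, then screen-wide robust z-score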
Reading the numbers: viability robust z-score: higher = more viable cells than screen typical; caspase robust z-score: higher = more caspase 3/7 activity than screen typical
Rule for the call: 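Hits are knock-downs in viability class RV1/RV2 or caspase class CA1/CA2, excluding ones that killed cells in the no-drug cell-count arm; hits then retested with single siRNAs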
This is one part, drawn at random, of about 18,000 reagents tested. Of all reagents, 450 (2.5%) are marked active. 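Single biological run; no consistent viability z cut-off exists, so the class columns, not z-scores, define the calls.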

Gene	viability hit class	caspase hit class	viability robust z-score	caspase robust z-score	outcome
RNF41	no change	no change	-0.42	-0.24	inactive
CBR4	no change	no change	-0.93	-1.08	inactive
CENPH	no change	no change	-0.52	-0.01	inactive
GBP6	no change	no change	0.28	-0.97	inactive
NMNAT2	no change	no change	1.21	-0.26	inactive
LRRC24	no change	no change	-1.17	1.95	inactive
CDHR3	no change	no change	0.22	1.58	inactive
TMEM200C	no change	no change	-0.45	3.3	inactive
HSD17B12	no change	no change	1.17	0.9	inactive
SMG9	no change	no change	0.81	-0.03	inactive
NME2	no change	no change	0.68	0.58	inactive
MR1	no change	no change	0.64	-0.1	inactive
LIPM	no change	no change	-0.24	-0.66	inactive
ADGRG3	no change	no change	-0.36	0.66	inactive
TRIM4	no change	CA1 (caspase activation)	-1.3	5.22	active
GLG1	no change	no change	-0.09	0.84	inactive
KLF3	no change	no change	-0.62	1.86	inactive
OR5I1	no change	no change	0.28	-0.94	inactive
KATNIP	no change	no change	0.38	0.08	inactive
LYLDT1	no change	no change	0.12	-0.18	inactive
EIF2A	no change	no change	-0.31	-0.82	inactive
TKTL1	no change	no change	-0.97	0.97	inactive
USP7	no change	no change	0.9	0.04	inactive
PORCN	no change	no change	0.59	-0.52	inactive
PKD1L3	no change	no change	-0.44	4.12	inactive
PLEKHS1	no change	no change	-0.48	0.33	inactive
CEACAM3	no change	no change	-1.4	-0.22	inactive
IRF1	no change	no change	1.86	-0.36	inactive
CCN5	no change	no change	1.32	0.08	inactive
ANKRD54	no change	no change	-0.44	-0.04	inactive
TMBIM4	no change	no change	-0.24	0.01	inactive
LINC01600	no change	no change	-1.36	0.22	inactive
KLF7	no change	no change	-0.31	3.92	inactive
CYP39A1	no change	no change	-0.91	2.6	inactive
MYORG	no change	no change	-1.98	3.63	inactive
RASD2	no change	no change	-0.31	5.08	inactive
METRN	no change	no change	0.46	0.6	inactive
GNAT1	no change	no change	-0.78	-0.43	inactive
MINAR1	no change	no change	-0.82	0.27	inactive
